Literature values as cited in patent US20220233487A1, “PREPARATION FOR USE IN WEIGHT MANAGEMENT COMPRISING OMEGA-3 FATTY ACID SALTS AND BASIC AMINO ACIDS” (Evonik Operations GmbH, priority 2019, published 2022).

For NCCC[C@H](N)C(=O)O [L-ornithine], which “pKa-values: pKCOOH” value is on record?
Its value is “pKCOOH: 1.94”.

And the “pKa-values: pKalpha-NH2” value?
The value was “pKalpha-NH2: 8.65”.

What about the “pKa-values: pKdelta-NH2” value of the same compound?
Its value is “pKdelta-NH2: 10.76”.
